The supplement of paper PMC5949888
Most values lie at the floor of the assay. Slopes are relative: functional sequences can read slightly below zero.

The substances below were run on Saccharomyces cerevisiae PS128 hsf1 delta, HSF1(1-493) fusion (assay: growth estimate (transactivation domain function in HSF1 fusion, heat-shock survival) (a.u. (slope of normalised read count over time)); higher = stronger growth at 37°C, i.e. more transactivation activity). Details: library: random library.

Substance | growth estimate
SQQFVSIARRSG | < -0.25
HLEPTSSRSEAGTTGHVTSM | < -0.25
DPVRKHAARSGLDVRIKHNN | < -0.25
AGRPG | -0.25
CLSFRMMSSIIYGGSHAHSH | < -0.25
RSGGPRNQRTRVERYKVECT | < -0.25
GLSRVGKKHCRLG | < -0.25
GVHQRRAAPTSRTGRYAYAP | < -0.25
GRRRSVINNKVQWGIERRGQ | < -0.25
WGGYPPILCTSIGWCLAFFA | < -0.25
GRFGRVARCLTYDVQDVRGG | < -0.25
GRAARSGWITSSTLLRAFTA | < -0.25
ACSAPCTLSAVSCRQLVNSL | 0.109
QHVQRVQMDFTAAGGEARSP | < -0.25
PVVVIPDRKVGFIRGEEVGH | < -0.25
LVVRVLRRDPLFRMVTPFTE | < -0.25
DLNSLRC | < -0.25
VGSTSGPS | < -0.25
RCERLI | < -0.25
APNLSWYDVCGITRPNRETD | < -0.25
ANSLKQLTHCLVGTAH | < -0.25
CKKSKIDIRSICI | < -0.25
TQPCPALQATTYPRCAHRRV | < -0.25

Substance | growth estimate
GYGELLRPPRGDAVITHLVV | < -0.25
VVWEAV | < -0.25
RGLSGRRSLRNLTGVCEYLA | < -0.25
GLVDGMSGNLSPLVSGSSQR | < -0.25
AVSACDRGGQRPKERIPIV | < -0.25
NSRPSLVWA | < -0.25
TRSVSRRGRACSFGPEPTQV | < -0.25
LVGYRHSILFTFLANRCIRA | < -0.25
SGAARNSEATDHQGPPTDGL | < -0.25
LASGRSLPRASRNEPRFQHH | < -0.25
SLNRIRFGVLLTLSVPVRCD | < -0.25
FLEPAGKGGKIHNTLADVPP | < -0.25
QSQSNAWCPLTVQKEKGDS | < -0.25
GVALERSQRRLVGNSQ | < -0.25
QFVSLSADQFCPDRSVNPLA | < -0.25
LTSIF | < -0.25
AVPDISQRAALAGWHCSDSA | < -0.25
PDY | < -0.25
WVSG | -0.231
GKETHKGENRVGRVKEAGIR | < -0.25
SSRSALHGYERRPALHS | < -0.25
VRP | < -0.25
SCAPANFRGRRLSSWRLIAT | -0.25

Substance | growth estimate
ESI | < -0.25
ELCIQGFSEQRPESDNRCGS | < -0.25
VRRGL | < -0.25
RLSGLGRLVSSLMSC | < -0.25
GCSEHIWRAPAVSALASLVS | < -0.25
WSGKRVVGRLRMVKQGGRKP | < -0.25
TSHHGDVSAQARIPMETLFH | -0.162
ILLEQSG | < -0.25
SVHPSPIILPGQ | < -0.25
VETLCKYEPHECMCPVVDYW | < -0.25
DCESCSSDKEGW | < -0.25
EMVARAGYVYPPGFREAIKG | < -0.25
RVGNTTSAVSYGPIPGHDVA | < -0.25
EQVRTDVVVTFFTILGPSVG | < -0.25
CKIAAWWIRE | < -0.25
LVAVPEGFVCGMFGHLYRLP | < -0.25
RSGY | < -0.25
TYPTHT | < -0.25
LVPQFC | < -0.25
SGGCRRCL | < -0.25
LHLRRTYIAASMRFMGRCHL | < -0.25
SINREFKHMLDERMYWGVLE | < -0.25
IRSVP | < -0.25

Substance | growth estimate
LTHVNNMEVLASSR | < -0.25
HRSGRVF | < -0.25
FTGIPLIRLR | < -0.25
IGG | -0.231
GKRDTIVKHSTQYPAVGVKA | < -0.25
ADMGIQVSLTLLMG | < -0.25
RHQSYV | < -0.25
GRSPTPRDPSVPGAIRL | < -0.25
YTIVKASIHRGV | < -0.25
YRRGRGPAENRQIAPEQVGF | < -0.25
SRLNWRGDCWESEVNITCLR | < -0.25
SVQWYSA | < -0.25
IVGRGLKTGYSRGFSLERY | < -0.25
RLRSAHLSAPRDLPRSELVC | < -0.25
LLTSSWEGKVGY | < -0.25
VNGGGNKTPVSTLGSPRCPH | < -0.25
RCAITVCRTGWSAPRYTCTG | < -0.25
CGEHKQLE | < -0.25
GIG | < -0.25
DISSFV | < -0.25
EVTRDVRLSIACGGLGGGHR | < -0.25
DLGYECAETWIQCISVWVSS | < -0.25
GQLRMLRGVAKRRSYSPG | < -0.25

Substance | growth estimate
SKG | < -0.25
QILEGKFHPTGQRVRNLVGR | < -0.25
QVTTCTQAYRRC | < -0.25
LIG | < -0.25
LGVNMIGHCYNGA | < -0.25
ASGRRPARL | < -0.25
RDGIGSQL | < -0.25
RCQRSCGDHGYEFNSGWVQI | < -0.25
ACIGSRRLQQITTDPVRACY | < -0.25
RWRLMRVHSNAISADSTLN | < -0.25
RLPGIVAGDGSLQT | < -0.25
RVKAAYRYGLV | < -0.25
TREAIQ | < -0.25
SSR | < -0.25
SLSTNLRFRCKHG | < -0.25
VRNHRSALLADFIACHGQGP | < -0.25
RKY | 0.0112
VYQKRCQKFIGSHQPIERQP | < -0.25
LTV | < -0.25
AGRENHRVWEGWSWPETVSE | -0.0372
CSPRPCSMCPSQRLITI | < -0.25
ISRVRGVLLLYWTYGLKSLP | < -0.25
SLITEVPLSLTYPIPDPSPP | < -0.25

Substance | growth estimate
CKNRRACTREAVHDNYDRRA | < -0.25
QVASQDQ | < -0.25
RGPTEP | < -0.25
SPGWHCRHDALGFVGSLRPG | < -0.25
VAICWARTRPSRADLTCPSR | < -0.25
DPK | < -0.25
AQLLGSH | < -0.25
ALSPQTMLREDYIAHYINHT | < -0.25
TSNIAHFYHSLIRRSN | < -0.25
RGIKITFHVVSFRHPG | < -0.25
ANCVNYMLQGQVRTLLRV | < -0.25
SCLRGLEIIG | < -0.25
CFEIGTKSVRVGV | < -0.25
TGWVNRAQ | < -0.25
RDAGSYGNQQNWIARACMGI | 1.56
TPKVHRPALWDVSKIGLASM | < -0.25
SDGEVPHPNWVLATGS | < -0.25
IWVQSNA | < -0.25
CKVEWDTGTLYRSPIHW | < -0.25
GQSVHAH | < -0.25
DVAR | < -0.25
VCNDHVA | < -0.25
LVVQLECGASTLDEHNFSVR | < -0.25

A second format for part of the listing above.
Substance	growth estimate
LIG	< -0.25
LGVNMIGHCYNGA	< -0.25
ASGRRPARL	< -0.25
RDGIGSQL	< -0.25
RCQRSCGDHGYEFNSGWVQI	< -0.25
ACIGSRRLQQITTDPVRACY	< -0.25
RWRLMRVHSNAISADSTLN	< -0.25
RLPGIVAGDGSLQT	< -0.25
RVKAAYRYGLV	< -0.25
TREAIQ	< -0.25
SSR	< -0.25
SLSTNLRFRCKHG	< -0.25
VRNHRSALLADFIACHGQGP	< -0.25
RKY	0.0112
VYQKRCQKFIGSHQPIERQP	< -0.25
LTV	< -0.25
AGRENHRVWEGWSWPETVSE	-0.0372
CSPRPCSMCPSQRLITI	< -0.25
ISRVRGVLLLYWTYGLKSLP	< -0.25
SLITEVPLSLTYPIPDPSPP	< -0.25
CKNRRACTREAVHDNYDRRA	< -0.25
QVASQDQ	< -0.25
RGPTEP	< -0.25
SPGWHCRHDALGFVGSLRPG	< -0.25
VAICWARTRPSRADLTCPSR	< -0.25
DPK	< -0.25
AQLLGSH	< -0.25
ALSPQTMLREDYIAHYINHT	< -0.25
TSNIAHFYHSLIRRSN	< -0.25
RGIKITFHVVSFRHPG	< -0.25
ANCVNYMLQGQVRTLLRV	< -0.25
SCLRGLEIIG	< -0.25
CFEIGTKSVRVGV	< -0.25
TGWVNRAQ	< -0.25
RDAGSYGNQQNWIARACMGI	1.56
TPKVHRPALWDVSKIGLASM	< -0.25
SDGEVPHPNWVLATGS	< -0.25
IWVQSNA	< -0.25
CKVEWDTGTLYRSPIHW	< -0.25
GQSVHAH	< -0.25
DVAR	< -0.25

Following part

Substance | growth estimate
ETCPGDNR | < -0.25
LTVYFGRVHAQAYTAVLILA | < -0.25
HQILGRLIRSYALFGRAVVT | < -0.25
GCGIGAPAVAVGSHLFKAGV | < -0.25
SSGSIDLALRHTLIQMCLTP | < -0.25
ASQDSVAIVGFLERWFCQKH | -0.248
SCGSKHA | < -0.25
HLSYNARLAPRDYPKGAPGS | < -0.25
QSSSIAHPID | < -0.25
HGPLIDSRPFGCLCEEQVSA | < -0.25
SRAWNGGDLNCYGG | < -0.25
ALHGLLTGSNCRSRTEQ | < -0.25
KIDKSPLCFPTLGQVRLYRC | < -0.25
AGSLCVRSQ | < -0.25
FNRCPRGTPVGIAYRQSRQR | < -0.25
WKLTFRQSPARPLHGSIANG | < -0.25
PSNCMAG | < -0.25
RSLVVYRRRTGIGLTLIKSI | < -0.25
LTITCLIHIRIPEKLGAGLQ | < -0.25
GLKD | < -0.25

Another view of some results above.

| Substance | growth estimate |
| --- | --- |
| GRRRSVINNKVQWGIERRGQ | < -0.25 |
| WGGYPPILCTSIGWCLAFFA | < -0.25 |
| GRSPTPRDPSVPGAIRL | < -0.25 |
| HGPLIDSRPFGCLCEEQVSA | < -0.25 |
